PubChem BioAssay AID504744 | Drosophila RNAi Screening Center | 2011
Screen: 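Identify dsRNAs that increase or decrease phospho-dAkt after insulin treatment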 (primary screen). System: Drosophila Kc167 cells. Knock-down reagent: long dsRNA against Drosophila genes, 250 ng dsRNA per well of a 384-well plate. Timing: 3 days of knock-down, then overnight serum-free starvation before stimulation. Conditions: bovine insulin at 387 nM for 10 minutes after 12 h without serum. Read-out: 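In-cell antibody fluorescence for phospho-dAkt in each well over DNA-dye signal, with log2 residuals expressed as z-scores adjusted for cell count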. Rule for the call: 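Under insulin, a gene counts as a hit if the average z-score of two replicates lies above 2.5 or below -2.5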.
In all, the deposit lists about 23,000 reagents; shown is an unselected part of those that have a named target and a result. Of all reagents, 98 (0.43%) are marked active. 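Only hit calls are given; the phospho-dAkt signals, z-scores and hit direction were not deposited.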 The numbers tell different reagents against one gene apart. A plus sign joins genes that one reagent is predicted to hit.

no.	gene knocked down	reagent no.	activity call
1	CG34354	1	inactive
2	CG34354	2	inactive
3	CG34354	3	inactive
4	CG34354	4	inactive
5	CG10469	1	inactive
6	knrl	1	inactive
7	ebo	1	inactive
8	CG11275	1	inactive
9	Lamp1	1	inactive
10	CG11382	1	inactive
11	JIL-1	1	inactive
12	Burs	1	inactive
13	NimA	1	inactive
14	NimA	2	inactive
15	Nepl15	1	inactive
16	CG42710	1	inactive
17	CG18731	1	inactive
18	CG15254	1	inactive
19	CG15254	2	inactive
20	CG14314	1	inactive
21	CG15535	1	inactive
22	CG33454	1	inactive
23	mRpL42	1	inactive
24	DnaJ-H	1	inactive
25	Cyp6d4	1	inactive
26	CG2126	1	inactive
27	ninaE	1	inactive
28	Trs31	1	inactive
29	vnd	1	inactive
30	vnd	2	inactive
31	vnd	3	inactive
32	Jon99Fii + Jon99Cii + Jon99Ciii + 1 more	1	inactive
33	CG14422	1	inactive
34	Iyd	1	inactive
35	Iyd	2	inactive
36	pall	1	inactive
37	ORY	1	inactive
38	CG18675	1	inactive
39	Vha16-3	1	inactive
40	CG14957	1	inactive
41	Ccp84Ab	1	inactive
42	Lerp	1	inactive
43	Lerp	2	inactive
44	Lerp	3	inactive
45	Lerp	4	inactive
46	nAChRalpha5	1	inactive
47	nAChRalpha5	2	inactive
48	nAChRalpha5	3	inactive
49	nAChRalpha5	4	inactive
50	CG6465	1	inactive
51	eyg	1	inactive
52	Spt7	1	inactive
53	CG32647	1	inactive
54	CG32647	2	inactive
55	CG15432	1	inactive
56	wry	1	inactive
57	wry	2	inactive
58	wry	3	inactive
59	CG3345	1	inactive
60	CG1529	1	inactive
61	sff	1	inactive
62	TotA	1	inactive
63	Ubc7	1	inactive
64	CG31495	1	inactive
65	CG8870	1	inactive
66	l(3)05822	1	inactive
67	CG13384	1	inactive
68	Pngl	1	inactive
69	Cpr73D	1	inactive
70	CG14230	1	inactive
71	Nadk1a	1	inactive
72	Nadk1a	2	inactive
73	goe	1	inactive
74	CanB	1	inactive
75	Vlet	1	inactive
76	CG7900	1	inactive
77	CG7900	2	inactive
78	CG34041	1	inactive
79	Kdsr	1	inactive
80	CG33337	1	inactive
81	Ir48b	1	inactive
82	CG30284	1	inactive
83	CG3117	1	inactive
84	Acer	1	inactive
85	inaF-C	1	inactive
86	Jhbp13	1	inactive
87	CG11378	1	inactive
88	CG31955	1	inactive
89	eIF3j	1	inactive
90	CG10749	1	inactive
91	CG14017	1	inactive
92	CG18809	1	inactive
93	CG15475	1	inactive
94	CG32733 (retired record) + CG32797	1	inactive
95	enok	1	inactive
96	CG33463	1	inactive
97	CG12645	1	inactive
98	CG5516	1	inactive
99	CG5516	2	inactive
100	Nt5a	1	inactive
101	sws	1	inactive
102	CG2129	1	inactive
103	Atet	1	inactive
104	Ltn1	1	inactive
105	Ltn1	2	inactive
106	Hsp70Bb + Hsp70Ba + Hsp70Bc + 1 more	1	inactive
107	Hsp70Bb + Hsp70Ba + Hsp70Bc + 1 more	2	inactive
108	CG13716	1	inactive
109	CG13716	2	inactive
110	ATbp	1	inactive
111	CG31809	1	inactive
112	CG14606	1	inactive
113	mRpL18	1	inactive
114	pyr	1	inactive
115	pyr	2	inactive
116	LIMK1	1	inactive
117	CG15570	1	inactive
118	LanB1	1	inactive
119	CG17826	1	inactive
120	CG6511	1	inactive
121	CG5550	1	inactive
122	CG9044	1	inactive
123	CG43775	1	inactive
124	CG1801	1	inactive
125	tko	1	inactive
126	CG14650	1	inactive
127	Unc-115a	1	inactive
128	HmgZ	1	inactive
129	HmgZ	2	inactive
130	CG32181	1	inactive
131	E(Pc)	1	inactive
132	E(Pc)	2	inactive
133	CG34032 (retired record)	1	inactive
134	CG9646	1	inactive
135	CG13060	1	inactive
136	CG18477 + CG31780	1	inactive
137	Balat	1	inactive
138	ovo	1	inactive
139	ovo	2	inactive
140	Tap42	1	inactive
141	CG9973 (retired record)	1	inactive
142	Eglp2	1	inactive
143	CR31846 (retired record)	1	inactive
144	CG12375	1	inactive
145	Cpes	1	inactive
146	CG12096	1	inactive
147	CG42557 + CG42558	1	inactive
148	CG42557 + CG42558	2	inactive
149	CG9799	1	inactive
150	CG8677 + CG31626	1	inactive
151	Mondo	1	inactive
152	Mondo	2	inactive
153	Mondo	3	inactive
154	CG30192	1	inactive
155	CG13558	1	inactive
156	CG3457	1	inactive
157	heca	1	inactive
158	Aef1	1	inactive
159	mthl8	1	inactive
160	mthl8	2	inactive
161	CG11349	1	inactive
162	Fad2	1	inactive
163	CG33631	1	inactive
164	RpL23	1	inactive
165	Spn42Dd	1	inactive
166	Spn42Dd	2	inactive
167	SLO2	1	inactive
168	SLO2	2	inactive
169	SLO2	3	inactive
170	SLO2	4	inactive
171	SLO2	5	inactive
172	CG1701	1	inactive
173	Dad	1	inactive
174	clt	1	inactive
175	Fum4	1	inactive
176	blo	1	inactive
177	CG33969	1	inactive
178	CG9662	1	inactive
179	sax	1	inactive
180	mRpS18B	1	inactive
181	hrm	1	inactive
182	ND-13A	1	inactive
183	Mkk4	1	inactive
184	CG11638	1	inactive
185	CG11638	2	inactive
186	tilB	1	inactive
187	syd	1	inactive
188	Fip1	1	inactive
189	CG32249	1	inactive
190	CG32249	2	inactive
191	CG32249	3	inactive
192	UK114	1	inactive
193	vkg	1	inactive
194	Archease	1	inactive
195	mRpL30	1	inactive
196	CG13559	1	inactive
197	Bap55	1	inactive
198	CG16743	1	inactive
199	CG30265	1	inactive
200	Fkbp14	1	inactive

Targets above whose gene name starts with I or i (4):
gene knocked down	reagent no.	activity call
Iyd	1	inactive
Iyd	2	inactive
Ir48b	1	inactive
inaF-C	1	inactive
